In paper PMC11211426:
These are yes or no findings as the source states them, for the method shown. In cells and extracts the contact can be indirect.

Amino acid sequences for entries named in this document (tags omitted).
UniProt P0DTD2: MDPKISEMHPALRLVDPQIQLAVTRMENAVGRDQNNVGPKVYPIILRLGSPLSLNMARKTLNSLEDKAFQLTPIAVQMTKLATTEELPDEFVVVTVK
UniProt P08238: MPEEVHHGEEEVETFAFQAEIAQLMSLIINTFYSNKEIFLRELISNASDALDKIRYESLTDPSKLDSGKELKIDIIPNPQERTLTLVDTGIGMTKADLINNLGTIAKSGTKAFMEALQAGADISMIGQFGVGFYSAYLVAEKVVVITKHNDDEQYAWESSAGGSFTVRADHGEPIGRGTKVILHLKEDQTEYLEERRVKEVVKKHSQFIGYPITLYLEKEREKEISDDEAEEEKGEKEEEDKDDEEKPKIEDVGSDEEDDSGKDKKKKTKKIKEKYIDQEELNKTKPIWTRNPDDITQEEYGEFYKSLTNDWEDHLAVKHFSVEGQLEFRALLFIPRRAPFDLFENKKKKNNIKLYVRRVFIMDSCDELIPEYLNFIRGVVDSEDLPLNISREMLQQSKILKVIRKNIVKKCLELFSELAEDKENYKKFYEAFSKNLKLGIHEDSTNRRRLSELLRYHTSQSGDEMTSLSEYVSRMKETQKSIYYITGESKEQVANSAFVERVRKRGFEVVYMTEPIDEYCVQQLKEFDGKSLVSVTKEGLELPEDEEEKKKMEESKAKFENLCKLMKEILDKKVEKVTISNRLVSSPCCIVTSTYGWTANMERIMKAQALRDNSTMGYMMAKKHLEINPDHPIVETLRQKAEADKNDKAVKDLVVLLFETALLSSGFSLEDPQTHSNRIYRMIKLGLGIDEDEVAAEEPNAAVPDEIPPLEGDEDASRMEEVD

Biological target: Flag-ORF9b (SARS-CoV-2 ORF9b, wild type) (SARS-CoV-2) (UniProt P0DTD2)
Assay: co-IP

HSP90β (from UniProt P08238 1-724) was tested, and the binding was “no binding”.
